# Assay results published in publication doi:10.1101/2020.04.30.070086 (bioRxiv, 2020).
# By UniProt entry, the sequences of proteins in these tests, tags left out.
# UniProt Q922U2: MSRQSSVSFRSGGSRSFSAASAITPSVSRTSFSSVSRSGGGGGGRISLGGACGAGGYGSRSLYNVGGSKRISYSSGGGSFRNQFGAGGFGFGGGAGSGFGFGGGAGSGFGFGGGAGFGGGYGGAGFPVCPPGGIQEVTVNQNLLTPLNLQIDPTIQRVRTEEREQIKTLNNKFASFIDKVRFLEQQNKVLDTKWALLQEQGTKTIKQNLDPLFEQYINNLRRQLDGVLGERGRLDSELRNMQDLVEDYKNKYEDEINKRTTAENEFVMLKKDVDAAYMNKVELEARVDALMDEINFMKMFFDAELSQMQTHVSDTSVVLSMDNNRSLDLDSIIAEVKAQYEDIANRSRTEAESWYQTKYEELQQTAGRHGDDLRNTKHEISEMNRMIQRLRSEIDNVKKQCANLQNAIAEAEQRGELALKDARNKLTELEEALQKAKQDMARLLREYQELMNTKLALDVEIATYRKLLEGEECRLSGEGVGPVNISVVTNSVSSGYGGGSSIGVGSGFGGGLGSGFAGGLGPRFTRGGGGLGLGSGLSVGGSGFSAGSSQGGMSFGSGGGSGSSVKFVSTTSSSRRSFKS
# Changes are numbered by the printed parent chain. Numbers in names are those of the source. No constants are given. Whether binding was seen depends on the method and setting. Some binding calls cover weakened binding; strength is not graded here. Where a sequence is shown, tags or fusion partners need not be part of it.
# T1: GST-Nde1 (UniProt Q9CZA6)
# T1 sequence: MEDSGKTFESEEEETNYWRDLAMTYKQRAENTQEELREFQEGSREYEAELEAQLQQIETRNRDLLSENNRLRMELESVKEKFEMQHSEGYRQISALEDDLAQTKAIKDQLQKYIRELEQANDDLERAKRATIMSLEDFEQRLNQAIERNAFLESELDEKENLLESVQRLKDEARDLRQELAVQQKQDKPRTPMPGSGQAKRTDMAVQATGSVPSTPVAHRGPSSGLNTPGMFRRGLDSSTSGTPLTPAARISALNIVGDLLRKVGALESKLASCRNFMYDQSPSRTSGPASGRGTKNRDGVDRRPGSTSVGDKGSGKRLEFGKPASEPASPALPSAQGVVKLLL
# T2: GST-Ndel1, full length (FL) (UniProt Q9ERR1)
# T2 sequence: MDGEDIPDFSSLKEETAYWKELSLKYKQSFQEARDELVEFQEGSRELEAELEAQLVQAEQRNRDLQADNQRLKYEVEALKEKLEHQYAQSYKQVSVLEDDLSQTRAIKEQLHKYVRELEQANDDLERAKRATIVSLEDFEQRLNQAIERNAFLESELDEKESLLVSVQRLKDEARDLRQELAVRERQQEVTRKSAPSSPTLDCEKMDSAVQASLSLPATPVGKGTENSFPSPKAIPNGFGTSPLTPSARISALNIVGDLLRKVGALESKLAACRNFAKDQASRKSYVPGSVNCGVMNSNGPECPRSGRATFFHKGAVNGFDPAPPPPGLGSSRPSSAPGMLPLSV
# B1: keratin 1 (K1) (protein, UniProt P04104 1-637)
# chain: MSLQCSSRSLCRGGGGSRNFSSGSAGLVSFQRRSTSSSMRRSGGGGGGRFSGGGFCGSSGSGFGSKSLMNLGGGRSISKSVAGGGGSFCGGFGGGSYGGGGFGGGSYGGGGFGGGSFGGGGFGGSGFGGGLGGGGGFGSGGGFGGGRFGSMGPVCPPGGIQEVTINQSLLQPLNVEVDPQIQKVKSQEREQIKSLNDKFASFIDKVRFLEQQNQVLQTKWELLQQVDTTTRTQNLDPFFENYISILRRKVDSLKSDQSRMDSELKNMQDLVEEYRTKYEDEINKRTNAENEFVTIKKDVDSAYMTKVELQAKADALQQDIDFFSALYQMEMSQMQTQISETNVVLSMDNNRSLDLDGIISEVKAQYDSICQRSKAEAETFYQSKYEELQITAGKHGDSVRNTKMEISELNRMIQRLRSEIDGCKKQISQIQQNINDAEQRGEKALKDAQNKLNEIEDALSQCKEDLARLLRDFQELMNTKLALDMEIATYKKLLEGEEIRMSGECTPNVSVSVSTSHTSMSGSSSRGGGSGGGRYGGGGSYGGGSGGGSYGGSSGGGGSGGSYGGGSGGGSYGGGSGGGSSGSHRGGSGGGGGSSGGSYGGSSGGGRGGSSSGGGGVKSSGSSTVKFVSTSYSRGTK
# B2: keratin 10 (K10), full length (natural protein, UniProt P02535-2 1-561, looked up)
# chain: MSVLYSSSSKQFSSSRSGGGGGGGSVRVSSTRGSLGGGYSSGGFSGGSFSRGSSGGGCFGGSSGGYGGFGGGGSFGGGYGGSSFGGGYGGSSFGGGSFGGGGSFGGGSFGGGSYGGGFGGGGFGGDGGSLLSGNEKVTMQNLNDRLASYMDKVRALEESNYELEGKIKEWYEKHGNSSQREPRDYSKYYKTIEDLKGQILTLTTDNANVLLQIDNARLAADDFRLKYENEVTLRQSVEADINGLRRVLDELTLSKSDLEMQIESLNEELAYLKKNHEEEMRDLQNVSTGDVNVEMNAAPGVDLTQLLNNMRNQYEQLAEKNRKDAEEWFNQKSKELTTEIDSNIEQMSSHKSEITELRRTVQGLEIELQSQLALKQSLEASLAETEGRYCVQLSQIQSQISALEEQLQQIRAETECQNAEYQQLLDIKTRLENEIQTYRSLLEGEGSSSGGGGGRRGGSGGGSYGGSSGGGSYGGSSGGGGSYGGSSGGGGSYGGGSSGGGSHGGSSGGGYGGGSSSGGAGGHGGSSGGGYGGGSSSGGQGGSGGFKSSGGGDQSSKGPRY
# B3: headless K1 and K10 (K1 amino acids 185-637 and K10 amino acids 129-561), allowed to interact (complex, UniProt P04104 185-637; P02535-2 129-561)
# chain 1: KSQEREQIKSLNDKFASFIDKVRFLEQQNQVLQTKWELLQQVDTTTRTQNLDPFFENYISILRRKVDSLKSDQSRMDSELKNMQDLVEEYRTKYEDEINKRTNAENEFVTIKKDVDSAYMTKVELQAKADALQQDIDFFSALYQMEMSQMQTQISETNVVLSMDNNRSLDLDGIISEVKAQYDSICQRSKAEAETFYQSKYEELQITAGKHGDSVRNTKMEISELNRMIQRLRSEIDGCKKQISQIQQNINDAEQRGEKALKDAQNKLNEIEDALSQCKEDLARLLRDFQELMNTKLALDMEIATYKKLLEGEEIRMSGECTPNVSVSVSTSHTSMSGSSSRGGGSGGGRYGGGGSYGGGSGGGSYGGSSGGGGSGGSYGGGSGGGSYGGGSGGGSSGSHRGGSGGGGGSSGGSYGGSSGGGRGGSSSGGGGVKSSGSSTVKFVSTSYSRGTK
# chain 2: SLLSGNEKVTMQNLNDRLASYMDKVRALEESNYELEGKIKEWYEKHGNSSQREPRDYSKYYKTIEDLKGQILTLTTDNANVLLQIDNARLAADDFRLKYENEVTLRQSVEADINGLRRVLDELTLSKSDLEMQIESLNEELAYLKKNHEEEMRDLQNVSTGDVNVEMNAAPGVDLTQLLNNMRNQYEQLAEKNRKDAEEWFNQKSKELTTEIDSNIEQMSSHKSEITELRRTVQGLEIELQSQLALKQSLEASLAETEGRYCVQLSQIQSQISALEEQLQQIRAETECQNAEYQQLLDIKTRLENEIQTYRSLLEGEGSSSGGGGGRRGGSGGGSYGGSSGGGSYGGSSGGGGSYGGSSGGGGSYGGGSSGGGSHGGSSGGGYGGGSSSGGAGGHGGSSGGGYGGGSSSGGQGGSGGFKSSGGGDQSSKGPRY
# B4: keratin 10(L442A), full length point mutant (protein, UniProt P02535-2 1-561)
# chain: B2 chain with L442A
# Biological target: T1, GST-Nde1
# Test: pull-down
row,binding,Molecule
1,binds,keratin 5 (K5) (from UniProt Q922U2 1-580)
2,binds,B1
3,binds,B2

# Biological target: T2, GST-Ndel1, full length (FL)
# Test: pull-down
row,binding,Molecule
1,binds,B3
2,binds,B2
3,no binding,B4
